Consider one molecule from patent publication US20040053329A1 (published 2004).

For this experiment, the target named is T1, human endoglin (CD105), purified (human) (UniProt P17813).
T1 sequence (looked up): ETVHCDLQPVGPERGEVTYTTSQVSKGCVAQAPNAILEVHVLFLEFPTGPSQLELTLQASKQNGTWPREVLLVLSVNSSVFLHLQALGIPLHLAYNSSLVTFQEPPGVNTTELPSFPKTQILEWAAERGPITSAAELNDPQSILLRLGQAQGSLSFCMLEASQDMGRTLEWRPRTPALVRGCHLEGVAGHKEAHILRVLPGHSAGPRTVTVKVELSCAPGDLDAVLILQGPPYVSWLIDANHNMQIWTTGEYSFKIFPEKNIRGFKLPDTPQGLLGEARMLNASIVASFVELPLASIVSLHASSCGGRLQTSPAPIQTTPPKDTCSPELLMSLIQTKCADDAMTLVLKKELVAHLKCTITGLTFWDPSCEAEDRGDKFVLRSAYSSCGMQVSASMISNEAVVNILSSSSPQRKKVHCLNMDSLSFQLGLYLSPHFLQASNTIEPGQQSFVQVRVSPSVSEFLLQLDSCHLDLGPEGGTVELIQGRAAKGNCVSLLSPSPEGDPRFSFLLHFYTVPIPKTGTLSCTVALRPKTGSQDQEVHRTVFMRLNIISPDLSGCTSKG
Put plainly: ELISA, plate coated with human endoglin at 10 µg/ml, scFv at 50 µg/ml-5 ng/ml, anti-Myc peroxidase detection. (In general: An ELISA detects its analyte on a solid surface through an enzyme-linked reagent.)

No constants are given. Whether binding was seen depends on the method and setting. Some binding calls cover weakened binding; strength is not graded here.

B1: scFv C4 (anti-endoglin polypeptide C4 in the form of an scFv fragment) (scFv, not shown: small tags and cut ends)
scFv: AQVQLVQSGAEVKKPGATVKISCKVSGYTFTDYYMHWVQQAPGKGLEWMGLVDPEDGETIYAEKFQGRVTITADTSTDTAYMELSSLRSEDTAVYYCARRTTHGPDPHWGQGTLVTVSSGGGGSGGGGSGGSALDIQLTQSPSSLSASVGDRVTITCRASQSISSYLNWYQRKPGKAPKLLIYAASSLQSGVPSRFSGSGSGTDFTLTISSLQPEDFATYYCQQSYSTRTFGQGTKLEIKR
notes: also called polypeptide scFv C4; anti-endoglin-antibody
As to B1, the binding entry is “binds”.
